By UniProt entry, the sequences of proteins in these tests, tags left out. Residues count along the entry.
UniProt P10664, residues 1-264: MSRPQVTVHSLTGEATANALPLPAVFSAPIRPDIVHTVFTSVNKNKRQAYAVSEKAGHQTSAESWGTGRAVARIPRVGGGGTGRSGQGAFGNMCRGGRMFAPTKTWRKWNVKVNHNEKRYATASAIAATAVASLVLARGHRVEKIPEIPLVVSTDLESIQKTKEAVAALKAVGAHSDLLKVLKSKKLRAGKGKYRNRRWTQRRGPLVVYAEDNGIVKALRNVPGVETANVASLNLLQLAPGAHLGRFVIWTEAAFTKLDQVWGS
UniProt P0CX44: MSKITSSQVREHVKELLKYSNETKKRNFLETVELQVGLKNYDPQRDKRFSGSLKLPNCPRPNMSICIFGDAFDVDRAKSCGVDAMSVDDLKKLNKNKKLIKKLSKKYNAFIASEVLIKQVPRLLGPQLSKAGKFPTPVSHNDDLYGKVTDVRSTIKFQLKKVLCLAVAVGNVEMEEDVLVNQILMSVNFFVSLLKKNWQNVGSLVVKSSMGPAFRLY

According to article PMC13034042:

Tests used:
Test in all cases: proximity labelling; TurboID-fused bait expressed from a centromeric CUP1-promoter plasmid in S. cerevisiae YDK11-5A; 500 μM copper sulphate and 500 μM biotin for 1 h at 30°C; biotinylated proteins purified on streptavidin agarose and identified by LC-MS/MS; enrichment against the GFP-TurboID and NLS-GFP-TurboID type controls
[1] = biological target: T1, Rpl5-TurboID (S. cerevisiae) (UniProt P26321)
T1 sequence: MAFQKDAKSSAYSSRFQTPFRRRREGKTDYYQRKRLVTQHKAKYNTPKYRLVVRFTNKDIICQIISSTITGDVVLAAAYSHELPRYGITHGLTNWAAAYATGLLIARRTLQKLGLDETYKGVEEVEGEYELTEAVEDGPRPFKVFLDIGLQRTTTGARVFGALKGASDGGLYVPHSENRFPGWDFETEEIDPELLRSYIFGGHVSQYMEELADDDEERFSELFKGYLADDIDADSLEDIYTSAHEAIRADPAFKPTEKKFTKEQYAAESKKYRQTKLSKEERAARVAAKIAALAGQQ

[2] = biological target: T2, TurboID-tagged Rps2 (S. cerevisiae) (UniProt P25443)
T2 sequence: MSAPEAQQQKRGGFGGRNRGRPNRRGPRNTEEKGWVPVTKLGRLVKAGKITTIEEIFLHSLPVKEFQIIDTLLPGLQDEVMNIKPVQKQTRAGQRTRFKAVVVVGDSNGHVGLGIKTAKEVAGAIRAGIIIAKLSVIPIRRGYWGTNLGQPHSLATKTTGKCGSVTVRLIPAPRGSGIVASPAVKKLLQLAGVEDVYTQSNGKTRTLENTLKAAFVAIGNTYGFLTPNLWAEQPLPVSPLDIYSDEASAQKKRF

[3] = biological target: T3, TurboID-tagged Rps3 (S. cerevisiae) (UniProt P05750)
T3 sequence: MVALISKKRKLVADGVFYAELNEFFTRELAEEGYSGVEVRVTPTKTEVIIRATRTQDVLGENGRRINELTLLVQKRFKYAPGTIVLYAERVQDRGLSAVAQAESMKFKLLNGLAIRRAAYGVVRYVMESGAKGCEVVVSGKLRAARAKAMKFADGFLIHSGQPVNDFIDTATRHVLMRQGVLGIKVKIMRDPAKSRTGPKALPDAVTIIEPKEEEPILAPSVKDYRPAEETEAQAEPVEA

[4] = biological target: Rpl4a.N264-TurboID (S. cerevisiae) (UniProt P10664)
[5] = biological target: T4, TurboID-Syo1 (S. cerevisiae) (UniProt Q07395)
T4 sequence: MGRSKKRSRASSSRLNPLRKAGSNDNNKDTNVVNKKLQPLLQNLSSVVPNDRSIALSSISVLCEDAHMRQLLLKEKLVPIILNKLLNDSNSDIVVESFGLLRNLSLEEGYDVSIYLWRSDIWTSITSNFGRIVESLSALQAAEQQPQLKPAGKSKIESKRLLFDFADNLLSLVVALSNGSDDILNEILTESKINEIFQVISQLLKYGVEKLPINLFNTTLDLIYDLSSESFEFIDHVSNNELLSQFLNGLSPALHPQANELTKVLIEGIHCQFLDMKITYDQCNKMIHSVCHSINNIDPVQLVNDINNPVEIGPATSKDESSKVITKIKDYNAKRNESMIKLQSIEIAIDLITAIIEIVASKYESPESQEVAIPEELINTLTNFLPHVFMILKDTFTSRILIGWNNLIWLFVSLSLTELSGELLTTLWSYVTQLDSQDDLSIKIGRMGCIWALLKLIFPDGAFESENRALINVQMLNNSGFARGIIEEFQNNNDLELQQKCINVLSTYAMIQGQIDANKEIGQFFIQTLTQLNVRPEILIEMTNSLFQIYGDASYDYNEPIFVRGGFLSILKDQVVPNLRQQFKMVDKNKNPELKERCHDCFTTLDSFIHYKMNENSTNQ

[6] = biological target: Rpl1b-TurboID (S. cerevisiae) (UniProt P0CX44)
[7] = biological target: T5, Syo1-TurboID (S. cerevisiae) (UniProt Q07395)
T5 sequence: T4 sequence

[8] = biological target: TurboID-Rpl1b (S. cerevisiae) (UniProt P0CX44)
[9] = biological target: T6, TurboID-Sqt1 (S. cerevisiae) (UniProt P35184)
T6 sequence: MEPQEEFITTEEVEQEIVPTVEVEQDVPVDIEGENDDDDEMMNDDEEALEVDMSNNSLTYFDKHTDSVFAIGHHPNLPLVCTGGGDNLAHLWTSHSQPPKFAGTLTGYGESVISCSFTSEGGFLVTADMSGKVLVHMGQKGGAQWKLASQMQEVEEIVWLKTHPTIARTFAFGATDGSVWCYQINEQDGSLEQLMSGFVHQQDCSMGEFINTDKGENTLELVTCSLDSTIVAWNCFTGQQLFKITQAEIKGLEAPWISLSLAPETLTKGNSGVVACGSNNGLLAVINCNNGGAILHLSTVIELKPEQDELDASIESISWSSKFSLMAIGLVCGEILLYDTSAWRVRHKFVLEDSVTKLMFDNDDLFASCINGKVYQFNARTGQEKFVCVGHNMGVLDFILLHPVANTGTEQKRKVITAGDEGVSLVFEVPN

[10] = biological target: T7, Sqt1-TurboID (S. cerevisiae) (UniProt P35184)
T7 sequence: T6 sequence

B1: Syo1 (endogenous) (protein, UniProt Q07395 1-620)
chain: T4 sequence
- binding [1]: binds

B2: Tsr4 (endogenous) (protein, UniProt P25040 1-408)
chain: MSKIEELPPSDTDDHSYSSKPGDVFLAFVDAPVKETDDILVEDSFIGGEPKWLHPDSEPPAELLKCGACKSADNMKLLLQAFSPLDDEQMSAIQQRLGINNMSYINPQDDRVLYVFLCTECQRKGNSVRCIRGVKKNKNVDSLSEKMASTSLEKDFQINPFDLSNNSDSKCNAFSSNPFGGANANPFGADSINSNISQSKDEGKKKESATVSAKTARKLHDLQKDKEYDGNKCFKSCLLYVEEETFKNKKPAHLQLPKNLKIDKEALDLTGDEDLEKDPIKLDPRTEKLSKFLDDDTFQKFQEVVGYNPLQVLRYDLGGKPLLYAETKVDILSTVPRPGYNPSSQRIFEMQLMPKMIFDLEEVVSVDNGMEWGTILVFTDVENYMPEFDEHGVGYVEECVKVQWESRT
- binding [2]: binds

B3: Yar1 (endogenous) (protein, UniProt P46683 1-200)
chain: MGLHSEPLDQEDQDTIILDARAGDLDSLKDIFTTLVSPELLSTCKESESDSTALHMAAANGHIETVRYILETVSRANSAEDLKAFVNEVNKTGNTALHWASLNGKLDVVKLLCDEYEADPFIRNKFGHDAIFEAENSGKEEVETYFLKKYDVEPEDDEEDTQTEGKNSVQITKGTEIEQVTKEATEALREETEKLNINKD
- binding [3]: binds

B4: Acl4 (endogenous) (protein, UniProt Q03771 1-387)
chain: MSELEATIRQAKEALAENNAKKALKILKPFKSSLKKENANNVILNEVFADAYLDNGQVEKAYPILARACELDPEGQVGGPDKFFTMGQIMGGQDGVSIITRGIMNISNTGGEMLTNVQVEKIVGGLLSVIEIWMTDLCMEPNAEEQCEELIQKAMELTEGKSPETWSTLGSIKISQQKFGEAYEAFSQAWNFFELKKQEIGSGINENGDTTQKAGLQSEYVDLLQPLLSLTKMCLEVGAYEVALKVIAAVRDIDEDNIEGYYLEGFTYYLMSKLEIFKLNNPEVSLRPENIYEFNQLIQEVPLDLSHEPISQLIYDSRLALSFALQAGVNADSKDEIVQELLGGANALLQEIGGPLDPSELTQIKKGDLVNENEDLEELDIEEEYSD
- binding [4]: binds

B5: Rpl5 (endogenous) (protein, UniProt P26321 1-297)
chain: T1 sequence
- binding [5]: binds
- binding [6]: binds
- binding [7]: binds
- binding [8]: binds

B6: Rpl10 (endogenous) (protein, UniProt P41805 1-221)
chain: MARRPARCYRYQKNKPYPKSRYNRAVPDSKIRIYDLGKKKATVDEFPLCVHLVSNELEQLSSEALEAARICANKYMTTVSGRDAFHLRVRVHPFHVLRINKMLSCAGADRLQQGMRGAWGKPHGLAARVDIGQIIFSVRTKDSNKDVVVEGLRRARYKFPGQQKIILSKKWGFTNLDRPEYLKKREAGEVKDDGAFVKFLSKKGSLENNIREFPEYFAAQA
- binding [9]: binds
- binding [10]: binds

No constants are given. Whether binding was seen depends on the method and setting. Binding seen in cells or lysates may run through a third protein. A yes stands for co-enrichment or nearness to the bait. Other partners may have been found. For some of these results: Sequences can lack the tags named with a protein.
